Measured values from publication PMC1931443.
Results are given in words; binding and its absence hold for the method and conditions named. Some binding calls cover weakened binding; strength is not graded here.

Chains of the proteins cited; added tags and fusions are not shown.
UniProt Q9QZ59: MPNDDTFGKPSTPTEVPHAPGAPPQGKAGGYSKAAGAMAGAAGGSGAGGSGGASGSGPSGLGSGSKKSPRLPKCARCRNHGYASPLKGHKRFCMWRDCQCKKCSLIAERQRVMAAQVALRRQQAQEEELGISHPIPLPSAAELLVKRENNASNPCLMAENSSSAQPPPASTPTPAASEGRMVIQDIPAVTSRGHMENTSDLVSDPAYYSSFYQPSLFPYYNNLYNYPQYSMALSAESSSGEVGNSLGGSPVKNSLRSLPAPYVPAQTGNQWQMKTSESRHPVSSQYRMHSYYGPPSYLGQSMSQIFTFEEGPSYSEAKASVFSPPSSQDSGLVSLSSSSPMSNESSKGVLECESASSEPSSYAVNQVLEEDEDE
UniProt Q80WT2: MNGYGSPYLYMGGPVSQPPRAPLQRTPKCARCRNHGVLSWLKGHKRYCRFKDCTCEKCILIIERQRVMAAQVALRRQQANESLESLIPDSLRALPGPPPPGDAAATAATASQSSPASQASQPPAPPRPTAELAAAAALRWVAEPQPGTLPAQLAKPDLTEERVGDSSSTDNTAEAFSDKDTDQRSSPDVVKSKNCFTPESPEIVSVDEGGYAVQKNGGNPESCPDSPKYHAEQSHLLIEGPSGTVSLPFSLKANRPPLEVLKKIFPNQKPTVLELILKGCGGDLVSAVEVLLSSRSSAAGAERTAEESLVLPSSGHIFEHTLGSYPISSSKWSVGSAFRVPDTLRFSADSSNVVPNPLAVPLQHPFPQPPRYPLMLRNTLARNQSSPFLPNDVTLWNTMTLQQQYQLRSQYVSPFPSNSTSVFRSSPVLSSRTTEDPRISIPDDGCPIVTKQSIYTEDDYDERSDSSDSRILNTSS
UniProt A2A9A2: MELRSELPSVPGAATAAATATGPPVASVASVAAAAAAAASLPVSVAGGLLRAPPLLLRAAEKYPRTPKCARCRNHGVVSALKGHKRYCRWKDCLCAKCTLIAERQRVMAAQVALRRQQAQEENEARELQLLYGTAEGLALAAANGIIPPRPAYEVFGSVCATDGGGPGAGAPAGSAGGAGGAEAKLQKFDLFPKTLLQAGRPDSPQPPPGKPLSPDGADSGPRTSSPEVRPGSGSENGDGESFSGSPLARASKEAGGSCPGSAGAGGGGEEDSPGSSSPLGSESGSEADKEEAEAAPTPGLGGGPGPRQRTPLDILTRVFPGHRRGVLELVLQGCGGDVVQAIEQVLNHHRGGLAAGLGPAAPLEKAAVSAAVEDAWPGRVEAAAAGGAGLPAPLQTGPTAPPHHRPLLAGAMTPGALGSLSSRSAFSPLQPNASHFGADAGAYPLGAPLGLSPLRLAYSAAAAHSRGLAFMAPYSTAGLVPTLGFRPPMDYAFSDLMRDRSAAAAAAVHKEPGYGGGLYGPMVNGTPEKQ

Target: DMRT1 of the heterodimerization gel shifts (complex not affected by the 9E10 anti-Myc antibody) (mouse) (UniProt Q9QZ59)
Assay: native gel or EMSA; DMRT1 alone or together with a Myc-tagged DMRT protein (in vitro translated) on labelled DMRT1 consensus probe; composition of the DNA/protein complexes tested by supershift with DMRT1 antibody or anti-Myc 9E10; dimers seen on DNA

binding | Substance
binds | DMRT3 (mouse), Myc epitope tagged, in vitro translated (from UniProt Q80WT2 1-476)
binds | DMRT5 (mouse), Myc epitope tagged, in vitro translated (from UniProt A2A9A2 1-531)
